Results deposited as PubChem BioAssay AID1159584 (Peter MacCallum Cancer Centre, 2016).
Aim: 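Genes that CDH1-null MCF10A cells selectively depend on to survive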 (primary screen). Cell system: human MCF10A breast epithelial cells, parental and CDH1-null. Reagent: siRNA against human genes. Detection: 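ATP luminescence (CellTiter-Glo) viability per line relative to mean mock wells over all plates, and the ratio of CDH1-null to parental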. Reading the numbers: CDH1-null / parental viability ratio: higher = CDH1-null cells survive relatively better than parental.
The deposit covers about 18,000 reagents; shown is an unselected part. Further read-outs or replicates are left out here. Not stated in the record: the amount of reagent, the time to read-out.

What is on record for STK25 (serine/threonine kinase 25)?
CDH1-null / parental viability ratio: 0.76

What did the screen give for AHSG (alpha 2-HS glycoprotein)?
CDH1-null / parental viability ratio: 0.89

With LITAF (lipopolysaccharide induced TNF factor), what does the deposit list?
CDH1-null / parental viability ratio: 0.84

With STRN4 (striatin 4), how do the results read?
CDH1-null / parental viability ratio: 0.86

Which result is listed for OR5AN1 (olfactory receptor family 5 subfamily AN member 1)?
CDH1-null / parental viability ratio: 0.91

What is on record for GSKIP (GSK3B interacting protein)?
CDH1-null / parental viability ratio: 0.83

What is on record for FBXO7 (F-box protein 7)?
CDH1-null / parental viability ratio: 1.15

How did the screen score SSH2 (slingshot protein phosphatase 2)?
CDH1-null / parental viability ratio: 1.25

How did the screen score SLC2A11?
CDH1-null / parental viability ratio: 0.92

Which result is listed for PITRM1 (pitrilysin metallopeptidase 1)?
CDH1-null / parental viability ratio: 1.45

With PLXNB1 (plexin B1), how do the results read?
CDH1-null / parental viability ratio: 0.84

What did the screen give for WNK2 (WNK lysine deficient protein kinase 2)?
CDH1-null / parental viability ratio: 0.89

What did the screen give for BLNK (B cell linker)?
CDH1-null / parental viability ratio: 1.15

What is on record for GEM (GTP binding protein overexpressed in skeletal muscle)?
CDH1-null / parental viability ratio: 0.97

Individual results from the list.
SLC2A11, CDH1-null / parental viability ratio: 0.92
Result for WNK2 (WNK lysine deficient protein kinase 2) in “CDH1-null / parental viability ratio”: 0.89
